# From PMC11292367
# Molecular target: T1, C4BPα1-2 (C4BP fragment composed of the α1 and α2 domains) (human) (UniProt P04003)
# T1 sequence: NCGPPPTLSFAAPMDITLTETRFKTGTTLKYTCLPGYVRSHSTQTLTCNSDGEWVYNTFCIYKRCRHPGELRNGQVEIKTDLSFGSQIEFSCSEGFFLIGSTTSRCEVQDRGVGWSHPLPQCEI
# Assay: crystal structure; M87^N100 mixed with C4BPα1-2 in equimolar ratio; hanging drop, 20 °C, 0.1 M sodium citrate pH 4.8, 0.2 M KH2PO4, 25% PEG 3350; molecular replacement, 2.7 Å; both purified
substance,measurement,value
"M87^N100 (N-terminal 100 amino acids of M87 protein, His6-tag removed) (Streptococcus pyogenes) (domain or fragment)",binding,binds

# Results are given in words; binding and its absence hold for the method and conditions named. A result given as binding can be weak or reduced; the word gives no strength.
